Experimental data from PubChem BioAssay AID1487 (National Center for Advancing Translational Sciences (NCATS), 2009).
Some of the results follow. Shown are side measurements of this screen, not its main read-out; they come without a call. The list favours compounds with an active or inconclusive main result. Potencies come from curve fits of mixed quality, noted in brackets.

Assay: qHTS Assay for Modulators of Lamin A Splicing
Settings: HeLa LMNA splicing GFP/RFP minigene ratio, 48 h
Procedure, shortened: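 S3 HeLa stable clones carrying a lamin A-EGFP splicing minigene plus DsRed2 were seeded at 600 cells/well in Opti-MEM with 2% FBS, pin-dosed and incubated 48 h at 37°C. Acumen cytometry (488 nm) gave the GFP/RFP total-intensity ratio.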

[1] = measured here: RFP viability control channel
[2] = measured here: GFP splicing reporter channel

Structure (SMILES): CCCCNC(=O)C1CCN(Cc2ccc(OCc3ccccc3)cc2)CC1
- AC50 [1]: 14.1 µM [rising, partial curve]

Structure (SMILES): N#Cc1nc(Cc2cccc3ccccc23)oc1NCc1ccc(F)cc1
- AC50 [1]: 14.1 µM [rising, partial curve]

Structure (SMILES): CCOC(=O)c1c(NC2=NS(=O)(=O)c3ccccc32)sc2c1CCCCC2
- AC50 [2]: 8.91 µM [falling, partial curve]
- AC50 [1]: 4.47 µM [falling, full curve, poor fit]

Structure (SMILES): Cc1ccccc1C(=O)NNC(=S)NC(=O)c1cccnc1
- AC50 [2]: 12.6 µM [rising, single point]
- AC50 [1]: 20 µM [rising, single point]

Structure (SMILES): COc1ccc(NC(=O)C2CCC(C(C)(C)C)CC2)cc1S(=O)(=O)N1CCCCC1 (stereo not given)
- AC50 [1]: 8.91 µM [rising, partial curve]

Structure (SMILES): Cc1cc(C(=O)NC(=S)Nc2ccccc2N2CCOCC2)ccc1[N+](=O)[O-]
- AC50 [2]: 10 µM [rising, partial curve, poor fit]
- AC50 [1]: 11.2 µM [rising, partial curve, poor fit]

Structure (SMILES): Cc1cc(C)nc(NS(=O)(=O)c2ccc(NC(=O)Nc3ccccc3)cc2)n1
- AC50 [1]: 5.62 µM [falling, partial curve]

Structure (SMILES): CCc1ccc(-c2cc(C(=O)Nc3ccc(S(=O)(=O)NC(C)=O)cc3)c3ccccc3n2)cc1
- AC50 [2]: 31.6 µM [rising, partial curve]

Structure (SMILES): OC(CN1CCN(c2cccc(Cl)c2)CC1)C(c1ccccc1)c1ccccc1 (stereo not given)
- AC50 [1]: 0.00501 µM [falling, full curve, poor fit]

Structure (SMILES): COc1ccc(-c2nnc(SCC(=O)c3ccc(C)o3)o2)cc1
- AC50 [2]: 17.8 µM [rising, single point]
- AC50 [1]: 35.5 µM [rising, single point]

Structure (SMILES): C=CCn1c2ccccc2c2nnc(SCC(=O)Nc3c(C)n(C)n(-c4ccccc4)c3=O)nc21
- AC50 [2]: 35.5 µM [rising, single point]

Structure (SMILES): Cc1ccc(-c2nc(COC(=O)c3c(C)noc3C)cs2)cc1
- AC50 [1]: 7.94 µM [rising, partial curve]

Structure (SMILES): O=C(CCCc1nc(-c2ccccc2)no1)Nc1cc(C(F)(F)F)cc(C(F)(F)F)c1
- AC50 [2]: 35.5 µM [falling, single point]
- AC50 [1]: 35.5 µM [falling, single point]

Structure (SMILES): CCCC(=O)Nc1ccc2c(c1)c1ccccc1n2CC
- AC50 [1]: 15.8 µM [rising, single point]

Structure (SMILES): CCN(CC)S(=O)(=O)c1cccc(NC(=S)NC(=O)/C=C/c2ccc(S(=O)(=O)N3CCOCC3)cc2)c1
- AC50 [1]: 31.6 µM [rising, single point]

Structure (SMILES): C=CCn1c(Cc2cccs2)nnc1SCC(=O)Nc1ccc(C(=O)OCC)cc1
- AC50 [2]: 14.1 µM [rising, single point]
- AC50 [1]: 14.1 µM [rising, single point]

Structure (SMILES): Cc1nn(-c2ccccc2)c2c1C(c1ccc(Cl)cc1)N(c1ccccc1)C(=O)N2 (stereo not given)
- AC50 [2]: 5.62 µM [rising, full curve, poor fit]
- AC50 [1]: 17.8 µM [rising, partial curve]

Structure (SMILES): COC/C=C/C1=CC2=CC(=O)C(C)(OC(=O)c3cnc4ccccc4n3)C(=O)C2=CN1Cc1ccc(OC)cc1 (stereo not given)
- AC50 [1]: 6.31 µM [rising, single point]

Structure (SMILES): O=C(NC(=S)Nc1cc([N+](=O)[O-])ccc1Cl)c1ccccc1
- AC50 [2]: 35.5 µM [rising, single point]

Structure (SMILES): CN(C)NC1CC(=O)N(c2ccccc2)C1=O (stereo not given)
- AC50 [2]: 20 µM [falling, partial curve, poor fit]
- AC50 [1]: 11.2 µM [falling, partial curve]

Structure (SMILES): O=C(NCC1CCCO1)c1ccc(Oc2ccc([N+](=O)[O-])cc2)cc1 (stereo not given)
- AC50 [2]: 0.0355 µM [falling, full curve, poor fit]

Structure (SMILES): Cc1ccc(NC(=O)c2cnc(N3CCCCC3)c3ccccc23)cc1Cl
- AC50 [2]: 15.8 µM [falling, single point]

Structure (SMILES): CCN(CC)c1ccc(/C=N/OC(C)C(=O)Nc2ccc(C)cc2)cc1 (stereo not given)
- AC50 [1]: 31.6 µM [rising, single point]

Structure (SMILES): CCCCN(C)C1=CC2=CC(=C(C#N)C#N)CCC2CC1 (stereo not given)
- AC50 [2]: 0.631 µM [falling, full curve]
- AC50 [1]: 0.501 µM [falling, full curve]

Structure (SMILES): CCc1cccc(CC)c1NC(=S)NCCc1ccc(O)c(O)c1
- AC50 [2]: 35.5 µM [falling, single point]

Structure (SMILES): COc1cc2c(cc1NC(=S)NC(=O)c1c(OC)cccc1OC)oc1ccccc12
- AC50 [2]: 2 µM [rising, full curve, poor fit]
- AC50 [1]: 3.16 µM [rising, full curve]

Structure (SMILES): Cc1n[nH]c(C)c1CCc1nc2c3ccccc3nc(SCC(=O)Nc3ccc(F)cc3)n2n1
- AC50 [2]: 22.4 µM [falling, partial curve, poor fit]
- AC50 [1]: 22.4 µM [falling, partial curve, poor fit]

Structure (SMILES): O=C(/C=C/c1ccccc1)CC(O)(c1ccccc1)C(F)(F)C(F)F (stereo not given)
- AC50 [2]: 35.5 µM [falling, single point]
- AC50 [1]: 35.5 µM [falling, single point]

Structure (SMILES): COc1cc(C2CC(=O)NC(SCC(=O)Nc3ccccc3C)=C2C#N)ccc1O (stereo not given)
- AC50 [2]: 3.98 µM [falling, single point]
- AC50 [1]: 3.16 µM [falling, single point]

Structure (SMILES): Cc1cccc(Nc2nc3ccccc3s2)c1C
- AC50 [2]: 3.55 µM [rising, partial curve]
- AC50 [1]: 8.91 µM [rising, partial curve, poor fit]

Structure (SMILES): COCCNc1ccc(S(=O)(=O)N2CCCC2)cc1[N+](=O)[O-]
- AC50 [1]: 17.8 µM [rising, single point]

Structure (SMILES): Cn1c(=O)[nH]c(=O)c2c1nc(Br)n2CCCCSc1nc2ccccc2o1
- AC50 [2]: 22.4 µM [rising, single point]
- AC50 [1]: 17.8 µM [rising, single point]

Structure (SMILES): CC1(C)CC2CC(C)(CN2C(=O)COC(=O)c2ccc(Cl)cc2N)C1 (stereo not given)
- AC50 [1]: 22.4 µM [rising, single point]

Structure (SMILES): C(#Cc1ccccc1)C[N+]1(CC#Cc2ccccc2)CCCC1
- AC50 [2]: 11.2 µM [rising, partial curve]
- AC50 [1]: 22.4 µM [rising, partial curve]
